These results are taken from PMC6131148.

The chains behind the UniProt entries cited, without tags or fusion partners.
UniProt Q86TM6: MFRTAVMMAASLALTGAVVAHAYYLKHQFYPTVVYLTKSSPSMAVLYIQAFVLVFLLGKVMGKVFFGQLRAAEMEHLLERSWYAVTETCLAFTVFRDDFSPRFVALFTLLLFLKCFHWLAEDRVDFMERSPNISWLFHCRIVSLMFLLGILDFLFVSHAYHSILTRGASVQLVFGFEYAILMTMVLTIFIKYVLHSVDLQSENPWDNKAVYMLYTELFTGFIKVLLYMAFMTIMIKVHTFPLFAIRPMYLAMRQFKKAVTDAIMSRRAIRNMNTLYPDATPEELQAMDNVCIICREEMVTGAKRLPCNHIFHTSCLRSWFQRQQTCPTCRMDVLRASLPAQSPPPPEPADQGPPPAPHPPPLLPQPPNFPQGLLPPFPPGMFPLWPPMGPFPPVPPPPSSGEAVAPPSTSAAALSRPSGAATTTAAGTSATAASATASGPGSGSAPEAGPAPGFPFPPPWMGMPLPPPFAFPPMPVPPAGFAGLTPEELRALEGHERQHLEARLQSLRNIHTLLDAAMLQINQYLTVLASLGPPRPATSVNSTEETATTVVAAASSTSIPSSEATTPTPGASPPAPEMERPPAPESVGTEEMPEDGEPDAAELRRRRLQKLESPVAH

B1: MLYCD, endogenous in HepG2 cells (enzyme, UniProt O95822 40-493)
chain: MDELLRRAVPPTPAYELREKTPAPAEGQCADFVSFYGGLAETAQRAELLGRLARGFGVDHGQVAEQSAGVLHLRQQQREAAVLLQAEDRLRYALVPRYRGLFHHISKLDGGVRFLVQLRADLLEAQALKLVEGPDVREMNGVLKGMLSEWFSSGFLNLERVTWHSPCEVLQKISEAEAVHPVKNWMDMKRRVGPYRRCYFFSHCSTPGEPLVVLHVALTGDISSNIQAIVKEHPPSETEEKNKITAAIFYSISLTQQGLQGVELGTFLIKRVVKELQREFPHLGVFSSLSPIPGFTKWLLGLLNSQTKEHGRNELFTDSECKEISEITGGPINETLKLLLSSSEWVQSEKLVRALQTPLMRLCAWYLYGEKHRGYALNPVANFHLQNGAVLWRINWMADVSLRGITGSCGLMANYRYFLEETGPNSTSYLGSKIIKASEQVLSLVAQFQKNSKL
B2: ENTPD5, endogenous in HepG2 cells (enzyme, UniProt O75356 25-428)
chain: NQQTWFEGIFLSSMCPINVSASTLYGIMFDAGSTGTRIHVYTFVQKMPGQLPILEGEVFDSVKPGLSAFVDQPKQGAETVQGLLEVAKDSIPRSHWKKTPVVLKATAGLRLLPEHKAKALLFEVKEIFRKSPFLVPKGSVSIMDGSDEGILAWVTVNFLTGQLHGHRQETVGTLDLGGASTQITFLPQFEKTLEQTPRGYLTSFEMFNSTYKLYTHSYLGFGLKAARLATLGALETEGTDGHTFRSACLPRWLEAEWIFGGVKYQYGGNQEGEVGFEPCYAEVLRVVRGKLHQPEEVQRGSFYAFSYYYDRAVDTDMIDYEKGGILKVEDFERKAREVCDNLENFTSGSPFLCMDLSYITALLKDGFGFADSTVLQLTKKVNNIETGWALGATFHLLQSLGISH
B3: AKR1C1, endogenous in HepG2 cells (enzyme, UniProt Q04828 1-323)
chain: MDSKYQCVKLNDGHFMPVLGFGTYAPAEVPKSKALEATKLAIEAGFRHIDSAHLYNNEEQVGLAIRSKIADGSVKREDIFYTSKLWCNSHRPELVRPALERSLKNLQLDYVDLYLIHFPVSVKPGEEVIPKDENGKILFDTVDLCATWEAVEKCKDAGLAKSIGVSNFNRRQLEMILNKPGLKYKPVCNQVECHPYFNQRKLLDFCKSKDIVLVAYSALGSHREEPWVDPNSPVLLEDPVLCALAKKHKRTPALIALRYQLQRGVVVLAKSYNEQRIRQNVQVFEFQLTSEEMKAIDGLNRNVRYLTLDIFAGPPNYPFSDEY
B4: RMND1, endogenous in HepG2 cells (protein, UniProt Q9NWS8 13-449)
chain: HHILSKAHQCRRIGHLMLKPLKEFENTTCSTLTIRQSLDLFLPDKTASGLNKSQILEMNQKKSDTSMLSPLNAARCQDEKAHLPTMKSFGTHRRVTHKPNLLGSKWFIKILKRHFSSVSTETFVPKQDFPQVKRPLKASRTRQPSRTNLPVLSVNEDLMHCTAFATADEYHLGNLSQDLASHGYVEVTSLPRDAANILVMGVENSAKEGDPGTIFFFREGAAVFWNVKDKTMKHVMKVLEKHEIQPYEIALVHWENEELNYIKIEGQSKLHRGEIKLNSELDLDDAILEKFAFSNALCLSVKLAIWEASLDKFIESIQSIPEALKAGKKVKLSHEEVMQKIGELFALRHRINLSSDFLITPDFYWDRENLEGLYDKTCQFLSIGRRVKVMNEKLQHCMELTDLMRNHLNEKRALRLEWMIVILITIEVMFELGRVFF
B5: CPT2, endogenous in HepG2 cells (enzyme, UniProt P23786 26-658)
chain: SAGSGPGQYLQRSIVPTMHYQDSLPRLPIPKLEDTIRRYLSAQKPLLNDGQFRKTEQFCKSFENGIGKELHEQLVALDKQNKHTSYISGPWFDMYLSARDSVVLNFNPFMAFNPDPKSEYNDQLTRATNMTVSAIRFLKTLRAGLLEPEVFHLNPAKSDTITFKRLIRFVPSSLSWYGAYLVNAYPLDMSQYFRLFNSTRLPKPSRDELFTDDKARHLLVLRKGNFYIFDVLDQDGNIVSPSEIQAHLKYILSDSSPAPEFPLAYLTSENRDIWAELRQKLMSSGNEESLRKVDSAVFCLCLDDFPIKDLVHLSHNMLHGDGTNRWFDKSFNLIIAKDGSTAVHFEHSWGDGVAVLRFFNEVFKDSTQTPAVTPQSQPATTDSTVTVQKLNFELTDALKTGITAAKEKFDATMKTLTIDCVQFQRGGKEFLKKQKLSPDAVAQLAFQMAFLRQYGQTVATYESCSTAAFKHGRTETIRPASVYTKRCSEAFVREPSRHSAGELQQMMVECSKYHGQLTKEAAMGQGFDRHLFALRHLAAAKGIILPELYLDPAYGQINHNVLSTSTLSSPAVNLGGFAPVVSDGFGVGYAVHDNWIGCNVSSYPGRNAREFLQCVEKALEDMFDALEGKSIKS
B6: HSD17B4, endogenous in HepG2 cells (enzyme, UniProt P51659 1-736)
chain: MGSPLRFDGRVVLVTGAGAGLGRAYALAFAERGALVVVNDLGGDFKGVGKGSLAADKVVEEIRRRGGKAVANYDSVEEGEKVVKTALDAFGRIDVVVNNAGILRDRSFARISDEDWDIIHRVHLRGSFQVTRAAWEHMKKQKYGRIIMTSSASGIYGNFGQANYSAAKLGLLGLANSLAIEGRKSNIHCNTIAPNAGSRMTQTVMPEDLVEALKPEYVAPLVLWLCHESCEENGGLFEVGAGWIGKLRWERTLGAIVRQKNHPMTPEAVKANWKKICDFENASKPQSIQESTGSIIEVLSKIDSEGGVSANHTSRATSTATSGFAGAIGQKLPPFSYAYTELEAIMYALGVGASIKDPKDLKFIYEGSSDFSCLPTFGVIIGQKSMMGGGLAEIPGLSINFAKVLHGEQYLELYKPLPRAGKLKCEAVVADVLDKGSGVVIIMDVYSYSEKELICHNQFSLFLVGSGGFGGKRTSDKVKVAVAIPNRPPDAVLTDTTSLNQAALYRLSGDWNPLHIDPNFASLAGFDKPILHGLCTFGFSARRVLQQFADNDVSRFKAIKARFAKPVYPGQTLQTEMWKEGNRIHFQTKVQETGDIVISNAYVDLAPTSGTSAKTPSEGGKLQSTFVFEEIGRRLKDIGPEVVKKVNAVFEWHITKGGNIGAKWTIDLKSGSGKVYQGPAKGAADTTIILSDEDFMEVVLGKLDPQKAFFSGRLKARGNIMLSQKLQMILKDYAKL

These are yes or no findings as the source states them, for the method shown. Binding seen in cells or lysates may run through a third protein. Here binding means that the protein was enriched with, or labelled near, the bait; the list need not be complete.

For the assay, the target named is HMG-CoA reductase degradation protein 1 (HRD1), endogenous in HepG2 cells (human (endogenous in HepG2)) (UniProt Q86TM6). Put plainly: affinity purification with mass spectrometry; endogenous HRD1 precipitated with anti-HRD1 (SYVN1) antibody from HepG2 lysate in NETN buffer (20 mM Tris-Cl pH 8.0, 150 mM NaCl, 1 mM EDTA, 0.5% NP-40), Protein A Sepharose; normal rabbit IgG as control; three independent experiments.
Regarding B1, the binding entry is listed as “binds”.

B2: the binding result is “binds”.

Take B3: the binding entry was “binds”.

For B4, the binding entry is listed as “binds”.

Consider B5, for which the binding entry is “binds”.

B6: the binding result is listed as “binds”.
